In PubChem BioAssay AID342 (DTP/NCI, 2004):
The list is a part of this screen's results and no random one: it gathers tests that were run many times, whatever their T/C, doses with no T/C, and many T/C values between a quarter and a half above the control. Further doses and runs are listed elsewhere. T/C gives the treated animals as a percentage of the vehicle group. Schedule codes are those of the source, taken here to give the interval after Q, in days (D) or hours (H), and the number of doses after X. Some entries give survivors of the animals treated and no T/C: the source files T/C as zero there, which appears to mark a toxic dose or a test without result, not a measured value. Survivors were counted at the toxicity check, usually on the fifth day, unless a day is given; later deaths do not show. Some schedule codes hold Z or #, which are not explained here.

Test system: Swiss mice, Sarcoma 180 sc, mean tumor weight T/C
Test: NCI In Vivo Anticancer Drug Screen. Data for tumor model Sarcoma 180 (subcutaneous) in Swiss mice
Conditions: T/C endpoint: mean tumor weight, higher T/C = larger tumour; for T/C: evaluated on day 8
How it was run: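 Antitumor activity is assessed in mice with transplantable tumors. Treated (T) and vehicle control (C) groups are compared on survival or tumor size.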

[1] = dose: 250.0 mg/kg/injection, schedule: Q01DX007 (ip), vehicle: saline
[2] = dose: 500.0 mg/kg/injection, schedule: Q01DX007 (ip), vehicle: carboxymethylcellulose (CMC)

Q: `CCOC1=C(N2CC2)C(=O)C(OCC)=C(N2CC2)C1=O` was tested. Which survivor count (dose: 2.65 mg/kg/injection, schedule: Q#A X014 (ip), vehicle: methylcellulose (MC)) did it give?
A: 2 of 6

Q: With `N=C(c1nsnc1N)N1CCCC1` as the compound, how does the survivor count (dose: 375.0 mg/kg/injection, schedule: Q01DX007 (ip), vehicle: saline) read?
A: 0 of 6

Q: With `CCOc1ccc2nc(S(N)(=O)=O)sc2c1` as the compound, how does the survivor count (dose: 111.0 mg/kg/injection, schedule: Q#A X014 (ip), vehicle: methylcellulose (MC)) read?
A: 2 of 6

Q: And the survivor count (dose: 166.5 mg/kg/injection, schedule: Q#A X014 (ip), vehicle: methylcellulose (MC))?
A: 3 of 6

Q: And the survivor count (dose: 250.0 mg/kg/injection, schedule: Q#A X014 (ip), vehicle: methylcellulose (MC))?
A: 1 of 6

Q: For `COc1ccc2c(c[n+](C)c3c4cc5c(cc4ccc23)OCO5)c1OC`, which survivor count (dose: 200.0 mg/kg/injection, schedule: Q01DX007 (ip), vehicle: carboxymethylcellulose (CMC)) is on record?
A: 3 of 6

Q: With `C[C@H]1C[C@@H]2[C@H](C(=O)C[C@@]3(C)[C@H]2CC[C@]3(O)C(=O)CO)[C@@]2(C)C=CC(=O)C=C12` as the compound, how does the survivor count (dose: 1109.0 mg/kg/injection, schedule: Q01DX007 (sc), vehicle: steroid suspending solution) read?
A: 1 of 6

Q: Which results are given for `COCCOC1=C(N2CC2)C(=O)C(OCCOC)=C(N2CC2)C1=O`?
A: survivor count (dose: 0.4 mg/kg/injection, schedule: Q01DX007 (sc), vehicle: saline): 0 of 6; survivor count (dose: 0.59 mg/kg/injection, schedule: Q01DX007 (sc), vehicle: saline): 0 of 6; T/C (dose: 0.89 mg/kg/injection, schedule: Q01DX001 (ip), vehicle: saline): 129 % of control; survivor count (dose: 0.89 mg/kg/injection, schedule: Q01DX007 (sc), vehicle: saline): 0 of 6; T/C (dose: 1.3 mg/kg/injection, schedule: Q01DX001 (ip), vehicle: saline): 145 % of control; survivor count (dose: 1.3 mg/kg/injection, schedule: Q01DX007 (sc), vehicle: saline): 0 of 6; survivor count (dose: 4.0 mg/kg/injection, schedule: Q01DX007 (im), vehicle: saline): 3 of 6; survivor count (dose: 4.0 mg/kg/injection, schedule: Q01DX007 (ip), vehicle: saline): 3 of 6; survivor count (dose: 4.0 mg/kg/injection, schedule: Q01DX007 (sc), vehicle: saline): 2 of 6; survivor count (dose: 6.0 mg/kg/injection, schedule: Q01DX001 (ip), vehicle: saline): 2 of 6; survivor count (dose: 6.0 mg/kg/injection, schedule: Q01DX006 (iv), vehicle: saline): 0 of 6; survivor count (dose: 6.0 mg/kg/injection, schedule: Q01DX007 (im), vehicle: saline): 1 of 6; survivor count (dose: 6.0 mg/kg/injection, schedule: Q01DX007 (ip), vehicle: saline): 0 of 6; survivor count (dose: 6.0 mg/kg/injection, schedule: Q01DX007 (sc), vehicle: saline): 1 of 6; survivor count (dose: 10.0 mg/kg/injection, schedule: Q01DX006 (iv), vehicle: saline): 0 of 6; survivor count (dose: 10.0 mg/kg/injection, schedule: Q01DX007 (im), vehicle: saline): 0 of 6; survivor count (dose: 10.0 mg/kg/injection, schedule: Q01DX007 (ip), vehicle: saline): 0 of 6; survivor count (dose: 10.0 mg/kg/injection, schedule: Q01DX007 (sc), vehicle: saline): 0 of 6; survivor count (dose: 12.0 mg/kg/injection, schedule: Q01DX001 (ip), vehicle: saline): 0 of 6; survivor count (dose: 16.0 mg/kg/injection, schedule: Q01DX007 (oral), vehicle: saline): 3 of 6; survivor count (dose: 24.0 mg/kg/injection, schedule: Q01DX007 (oral), vehicle: saline): 0 of 6; survivor count (dose: 40.0 mg/kg/injection, schedule: Q01DX007 (oral), vehicle: saline): 0 of 6

Q: With `CC(=O)OCC(=O)[C@@]1(O)CC[C@H]2[C@@H]3C[C@H](C)C4=CC(=O)C=C[C@]4(C)[C@@]3(F)[C@@H](O)C[C@@]21C` as the compound, how does the survivor count (dose: 125.0 mg/kg/injection, schedule: Q01DX007 (sc), vehicle: steroid suspending solution) read?
A: 2 of 6

Q: And the survivor count (dose: 187.0 mg/kg/injection, schedule: Q01DX007 (sc), vehicle: steroid suspending solution)?
A: 0 of 6

Q: What about the survivor count (dose: 281.0 mg/kg/injection, schedule: Q01DX007 (sc), vehicle: steroid suspending solution) of the same compound?
A: 1 of 6

Q: Which T/C [1] does the source give for `C=CCCCCCCCCC(=O)O` here?
A: 125 % of control

Q: And the T/C (dose: 500.0 mg/kg/injection, schedule: Q01DX007 (ip), vehicle: saline)?
A: 127 % of control

Q: Which survivor count (dose: 2000.0 mg/kg/injection, schedule: Q01DX007 (ip), vehicle: carboxymethylcellulose (CMC)) does the source give for `C[C@H](N)C(=O)N[C@@H]1[C@H]2C(=C(O)C[C@@H](O)[C@@H]2O)C(=O)O[C@@H]1C` here?
A: 1 of 7

Q: For `N#CCOC(=O)CCC(NC(=O)OCc1ccccc1)C(N)=O` (stereo not drawn), which survivor count (dose: 75.0 mg/kg/injection, schedule: Q01DX007 (ip), vehicle: carboxymethylcellulose (CMC)) is on record?
A: 2 of 6

Q: With `COC(=O)[C@H]1[C@H]2C[C@@H]3c4[nH]c5cc(OC)ccc5c4CCN3C[C@H]2C[C@@H](OC(=O)c2cc(OC)c(OC)c(OC)c2)[C@@H]1OC` as the compound, how does the survivor count (dose: 4.0 mg/kg/injection, schedule: Q01DX007 (ip), vehicle: carboxymethylcellulose (CMC)) read?
A: 1 of 6

Q: And the survivor count (dose: 5.1 mg/kg/injection, schedule: Q01DX007 (ip), vehicle: carboxymethylcellulose (CMC))?
A: 2 of 7

Q: For `C[N+]1(CCC[N+]2(C)C[C@@H]3[C@H](C2)[C@@H]2C=C[C@H]3C2)CCOCC1` (stereo partly drawn), which T/C [1] is on record?
A: 130 % of control

Q: What about the survivor count (dose: 1000.0 mg/kg/injection, schedule: Q01DX007 (ip), vehicle: saline) of the same compound?
A: 0 of 6

Q: `Cc1cc(N)c2cc(NC(=O)/C=C\c3ccccc3Cl)ccc2n1` was tested. Which survivor count (dose: 38.0 mg/kg/injection, schedule: Q01DX007 (ip), vehicle: carboxymethylcellulose (CMC)) did it give?
A: 1 of 6

Q: For `CN(C)[C@@H]1C(=O)C(C(=O)NCNc2nc(=S)c3[nH]cnc3[nH]2)=C(O)[C@@]2(O)C(=O)C3=C(O)c4c(O)cccc4[C@@](C)(O)[C@H]3C[C@@H]12`, which survivor count (dose: 125.0 mg/kg/injection, schedule: Q01DX007 (ip), vehicle: carboxymethylcellulose (CMC)) is on record?
A: 1 of 6

Q: How did the survivor count (dose: 140.0 mg/kg/injection, schedule: Q01DX007 (ip), vehicle: carboxymethylcellulose (CMC)) turn out when `CCCCSc1ncnc2nc[nH]c12` was run?
A: 3 of 6

Q: What does the source list for `[Cl][Pt+2]([Cl])([Cl])[Cl].[Na+].[S-]c1ncnc2nc[nH]c12.[S-]c1ncnc2nc[nH]c12`?
A: survivor count (dose: 150.0 mg/kg/injection, schedule: Q01DX007 (ip), vehicle: carboxymethylcellulose (CMC)): 2 of 6; survivor count (dose: 220.0 mg/kg/injection, schedule: Q01DX007 (ip), vehicle: carboxymethylcellulose (CMC)): 0 of 6; survivor count (dose: 330.0 mg/kg/injection, schedule: Q01DX007 (ip), vehicle: carboxymethylcellulose (CMC)): 0 of 6; survivor count (dose: 336.0 mg/kg/injection, schedule: Q01DX007 (ip), vehicle: carboxymethylcellulose (CMC)): 1 of 6; survivor count [2]: 2 of 6

Q: `CN(N=O)C(=O)Nc1c[nH]c(=O)[nH]c1=O` was tested. Which survivor count (dose: 50.0 mg/kg/injection, schedule: Q#A X014 (ip), vehicle: carboxymethylcellulose (CMC)) did it give?
A: 1 of 6

Q: For `C[C@]12CCc3c(ccc4cc(O)ccc34)[C@@H]1C[C@H](O)[C@@H]2O`, which T/C (dose: 5.0 mg/kg/injection, schedule: Q01DX007 (sc), vehicle: steroid suspending solution) is on record?
A: 131 % of control

Q: Which survivor count (dose: 150.0 mg/kg/injection, schedule: Q#A X014 (ip), vehicle: methylcellulose (MC)) does the source give for `Nc1cc(SCc2ccccc2)nc(N)n1` here?
A: 3 of 6

Q: Which T/C (dose: 27.0 mg/kg/injection, schedule: Q01DX007 (ip), vehicle: carboxymethylcellulose (CMC)) does the source give for `Cc1cc2nc(Cc3nc4cc(C)c(C)cc4[nH]3)[nH]c2cc1C` here?
A: 132 % of control

Q: And the T/C (dose: 40.0 mg/kg/injection, schedule: Q01DX007 (ip), vehicle: carboxymethylcellulose (CMC))?
A: 144 % of control

Q: What does the source list for `CO[C@H]1CC[C@@]2(C)[C@@H](CC[C@H]3[C@@H]4C[C@H](O)C[C@@]4(C)CC[C@@H]32)C1`?
A: survivor count (dose: 1.25 mg/kg/injection, schedule: Q#A X014 (ip), vehicle: distilled water + alcohol): 2 of 6; survivor count (dose: 2.5 mg/kg/injection, schedule: Q#A X014 (ip), vehicle: distilled water + alcohol): 3 of 6; survivor count (dose: 10.0 mg/kg/injection, schedule: Q#A X014 (ip), vehicle: distilled water + alcohol): 3 of 6; survivor count (dose: 250.0 mg/kg/injection, schedule: Q#A X014 (ip), vehicle: distilled water + alcohol): 2 of 6

Q: `O=C1Nc2ccccc2/C1=C/c1cccnc1` was tested. Which survivor count [2] did it give?
A: 3 of 6
